Laboratory results: PubChem BioAssay AID1224831 (NIAID, 2016)
Purpose: 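Retesting screen hits on the TLR4-driven TNF response with six separate siRNAs each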 (follow-up of hits). System: human THP-1 B5 monocytic leukaemia cells carrying a TNF promoter luciferase reporter, made macrophage-like with PMA. Knock-down reagent: single siRNA against human genes, 50 nM. Timing: about 68 h of knock-down, then 4 h LPS. Conditions: LPS (Salmonella minnesota, TLR-grade) at 10 ng/ml for 4 h; PMA 5 ng/ml present during knock-down. Detection: 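TNF promoter reporter read as dual luciferase ratio after 4 h LPS, normalised per plate to its median, given as replicate mean robust z-score per siRNA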. Reading the numbers: TNF reporter z-score: higher = stronger LPS-induced TNF reporter signal; z-score, median over gene's siRNAs: higher = stronger TNF reporter signal across the gene's siRNAs. Active means: 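Active when the replicate mean z-score is about -1 or lower, or about 1.5 or higher; lowered and raised TNF reporter signal both count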. Calls: active = changed TNF reporter (either direction); inactive = little change.
This is one part, drawn at random, of about 3,500 reagents. Of all reagents, 731 (21%) were called active. 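Active means either lowered or raised reporter signal; the gene-median score did not drive the per-siRNA calls.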 The numbers tell different reagents against one gene apart.

target | reagent | TNF reporter z-score, replicate mean | z-score, median over gene's siRNAs | activity call
NLRC4 (NLR family CARD domain containing 4) | 1 | 3.14 | 1.6 | active
NLRC4 (NLR family CARD domain containing 4) | 2 | 1.69 | 1.6 | active
NLRC4 (NLR family CARD domain containing 4) | 3 | 0.89 | 1.6 | inactive
NLRC4 (NLR family CARD domain containing 4) | 4 | 1.19 | 1.6 | inactive
NLRC4 (NLR family CARD domain containing 4) | 5 | 4.79 | 1.6 | active
NLRC4 (NLR family CARD domain containing 4) | 6 | 1.51 | 1.6 | active
ZAP70 (zeta chain of T cell receptor associated protein kinase 70) | 1 | -0.02 | 0.03 | inactive
ZAP70 (zeta chain of T cell receptor associated protein kinase 70) | 2 | -0.04 | 0.03 | inactive
ZAP70 (zeta chain of T cell receptor associated protein kinase 70) | 3 | 0.67 | 0.03 | inactive
ZAP70 (zeta chain of T cell receptor associated protein kinase 70) | 4 | -0.25 | 0.03 | inactive
ZAP70 (zeta chain of T cell receptor associated protein kinase 70) | 5 | 0.28 | 0.03 | inactive
ZAP70 (zeta chain of T cell receptor associated protein kinase 70) | 6 | 0.08 | 0.03 | inactive
SLC2A1 | 1 | -0.31 | -0.515 | inactive
SLC2A1 | 2 | 0.07 | -0.515 | inactive
SLC2A1 | 3 | -1.26 | -0.515 | active
SLC2A1 | 4 | -0.88 | -0.515 | inactive
SLC2A1 | 5 | -0.72 | -0.515 | inactive
SLC2A1 | 6 | 0.07 | -0.515 | inactive
PSMB1 (proteasome 20S subunit beta 1) | 1 | -1.2 | -1.08 | active
PSMB1 (proteasome 20S subunit beta 1) | 2 | -0.72 | -1.08 | inactive
PSMB1 (proteasome 20S subunit beta 1) | 3 | -0.91 | -1.08 | inactive
PSMB1 (proteasome 20S subunit beta 1) | 4 | -0.97 | -1.08 | inactive
PSMB1 (proteasome 20S subunit beta 1) | 5 | -1.46 | -1.08 | active
PSMB1 (proteasome 20S subunit beta 1) | 6 | -1.67 | -1.08 | active
CT45A3 (cancer/testis antigen family 45 member A3) | 1 | 0.34 | -0.035 | inactive
CT45A3 (cancer/testis antigen family 45 member A3) | 2 | -0.63 | -0.035 | inactive
CT45A3 (cancer/testis antigen family 45 member A3) | 3 | -0.4 | -0.035 | inactive
CT45A3 (cancer/testis antigen family 45 member A3) | 4 | -0.6 | -0.035 | inactive
CT45A3 (cancer/testis antigen family 45 member A3) | 5 | 0.33 | -0.035 | inactive
CT45A3 (cancer/testis antigen family 45 member A3) | 6 | 5.16 | -0.035 | active

14 of these entries, set out differently.
| target | reagent | TNF reporter z-score, replicate mean | z-score, median over gene's siRNAs | activity call |
| --- | --- | --- | --- | --- |
| ZAP70 (zeta chain of T cell receptor associated protein kinase 70) | 5 | 0.28 | 0.03 | inactive |
| ZAP70 (zeta chain of T cell receptor associated protein kinase 70) | 6 | 0.08 | 0.03 | inactive |
| SLC2A1 | 1 | -0.31 | -0.515 | inactive |
| SLC2A1 | 2 | 0.07 | -0.515 | inactive |
| SLC2A1 | 3 | -1.26 | -0.515 | active |
| SLC2A1 | 4 | -0.88 | -0.515 | inactive |
| SLC2A1 | 5 | -0.72 | -0.515 | inactive |
| SLC2A1 | 6 | 0.07 | -0.515 | inactive |
| PSMB1 (proteasome 20S subunit beta 1) | 1 | -1.2 | -1.08 | active |
| PSMB1 (proteasome 20S subunit beta 1) | 2 | -0.72 | -1.08 | inactive |
| PSMB1 (proteasome 20S subunit beta 1) | 3 | -0.91 | -1.08 | inactive |
| PSMB1 (proteasome 20S subunit beta 1) | 4 | -0.97 | -1.08 | inactive |
| PSMB1 (proteasome 20S subunit beta 1) | 5 | -1.46 | -1.08 | active |
| PSMB1 (proteasome 20S subunit beta 1) | 6 | -1.67 | -1.08 | active |

Next reagents follow:
target | reagent | TNF reporter z-score, replicate mean | z-score, median over gene's siRNAs | activity call
CYP27A1 (cytochrome P450 family 27 subfamily A member 1) | 1 | -2.76 | -1.98 | active
CYP27A1 (cytochrome P450 family 27 subfamily A member 1) | 2 | -2.32 | -1.98 | active
CYP27A1 (cytochrome P450 family 27 subfamily A member 1) | 3 | -2.7 | -1.98 | active
CYP27A1 (cytochrome P450 family 27 subfamily A member 1) | 4 | -1.5 | -1.98 | active
CYP27A1 (cytochrome P450 family 27 subfamily A member 1) | 5 | -1.63 | -1.98 | active
CYP27A1 (cytochrome P450 family 27 subfamily A member 1) | 6 | -1.01 | -1.98 | active
CNTNAP3 (contactin associated protein family member 3) | 1 | 0.67 | -0.13 | inactive
CNTNAP3 (contactin associated protein family member 3) | 2 | -0.78 | -0.13 | inactive
CNTNAP3 (contactin associated protein family member 3) | 3 | -1.37 | -0.13 | active
CNTNAP3 (contactin associated protein family member 3) | 4 | 3.95 | -0.13 | active
CNTNAP3 (contactin associated protein family member 3) | 5 | 0.35 | -0.13 | inactive
CNTNAP3 (contactin associated protein family member 3) | 6 | -0.61 | -0.13 | inactive
SCGB1D2 (secretoglobin family 1D member 2) | 1 | 0.68 | 0.87 | inactive
SCGB1D2 (secretoglobin family 1D member 2) | 2 | 1.39 | 0.87 | inactive
SCGB1D2 (secretoglobin family 1D member 2) | 3 | 1.06 | 0.87 | inactive
SCGB1D2 (secretoglobin family 1D member 2) | 4 | -0.53 | 0.87 | inactive
SCGB1D2 (secretoglobin family 1D member 2) | 5 | 0.2 | 0.87 | inactive
SCGB1D2 (secretoglobin family 1D member 2) | 6 | 1.92 | 0.87 | active
FPGS (folylpolyglutamate synthase) | 1 | -0.49 | 0.065 | inactive
FPGS (folylpolyglutamate synthase) | 2 | 0.86 | 0.065 | inactive
FPGS (folylpolyglutamate synthase) | 3 | 0.12 | 0.065 | inactive
FPGS (folylpolyglutamate synthase) | 4 | 0.01 | 0.065 | inactive
FPGS (folylpolyglutamate synthase) | 5 | -0.87 | 0.065 | inactive
FPGS (folylpolyglutamate synthase) | 6 | 0.31 | 0.065 | inactive
HORMAD1 (HORMA domain containing 1) | 1 | -0.59 | 0.28 | inactive
HORMAD1 (HORMA domain containing 1) | 2 | 2.15 | 0.28 | active
HORMAD1 (HORMA domain containing 1) | 3 | -1.21 | 0.28 | active
HORMAD1 (HORMA domain containing 1) | 4 | 1.36 | 0.28 | inactive
HORMAD1 (HORMA domain containing 1) | 5 | 1.15 | 0.28 | inactive
HORMAD1 (HORMA domain containing 1) | 6 | -0.71 | 0.28 | inactive
USP13 (ubiquitin specific peptidase 13) | 1 | 0.07 | 0.005 | inactive
USP13 (ubiquitin specific peptidase 13) | 2 | -0.07 | 0.005 | inactive
USP13 (ubiquitin specific peptidase 13) | 3 | -0.06 | 0.005 | inactive
USP13 (ubiquitin specific peptidase 13) | 4 | 2.62 | 0.005 | active
USP13 (ubiquitin specific peptidase 13) | 5 | 0.21 | 0.005 | inactive
USP13 (ubiquitin specific peptidase 13) | 6 | -0.13 | 0.005 | inactive
STX4 (syntaxin 4) | 1 | -0.14 | 0.62 | inactive
STX4 (syntaxin 4) | 2 | 0.98 | 0.62 | inactive
STX4 (syntaxin 4) | 3 | 0.5 | 0.62 | inactive
STX4 (syntaxin 4) | 4 | 0.74 | 0.62 | inactive
STX4 (syntaxin 4) | 5 | -0.04 | 0.62 | inactive
STX4 (syntaxin 4) | 6 | 1.92 | 0.62 | active
PANK4 (pantothenate kinase 4 (inactive)) | 1 | 0.53 | 0.14 | inactive
PANK4 (pantothenate kinase 4 (inactive)) | 2 | -0.54 | 0.14 | inactive
PANK4 (pantothenate kinase 4 (inactive)) | 3 | -0.53 | 0.14 | inactive
PANK4 (pantothenate kinase 4 (inactive)) | 4 | 0.6 | 0.14 | inactive
PANK4 (pantothenate kinase 4 (inactive)) | 5 | -0.25 | 0.14 | inactive
PANK4 (pantothenate kinase 4 (inactive)) | 6 | 1.52 | 0.14 | active
C8orf74 (chromosome 8 open reading frame 74) | 1 | 0.6 | 0.27 | inactive
C8orf74 (chromosome 8 open reading frame 74) | 2 | -0.67 | 0.27 | inactive
C8orf74 (chromosome 8 open reading frame 74) | 3 | 0.54 | 0.27 | inactive
C8orf74 (chromosome 8 open reading frame 74) | 4 | -0.38 | 0.27 | inactive
C8orf74 (chromosome 8 open reading frame 74) | 5 | 0.14 | 0.27 | inactive
C8orf74 (chromosome 8 open reading frame 74) | 6 | 0.4 | 0.27 | inactive
